One molecule from patent publication US20210130473A1, “TGFßR1 INHIBITOR-ASGR ANTIBODY CONJUGATES AND USES THEREOF” (Silverback Therapeutics, Inc., priority 2019, published 2021) can be followed below.

This experiment has as its target T1, His-tagged human ASGR1 extracellular domain (human) (UniProt P07306).
T1 sequence (looked up): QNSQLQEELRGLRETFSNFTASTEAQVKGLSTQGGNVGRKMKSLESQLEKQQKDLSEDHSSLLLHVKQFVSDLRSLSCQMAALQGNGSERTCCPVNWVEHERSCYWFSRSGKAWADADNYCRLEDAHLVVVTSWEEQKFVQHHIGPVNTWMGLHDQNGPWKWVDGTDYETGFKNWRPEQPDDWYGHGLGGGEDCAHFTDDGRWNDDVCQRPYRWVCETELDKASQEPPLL
The experiment in a line: Octet, His-tagged ASGR1 ECD on Penta-His sensors; saturation binding with Ca2+, signal kept on dissociation with or without Ca2+.

No constants are given. Whether binding was seen depends on the method and setting. Some binding calls cover weakened binding; strength is not graded here. Where a sequence is shown, tags or fusion partners need not be part of it.

B1: chH8K (antibody, human IgG1, kappa, V domains shown)
VH: DVQLQESGPGLVKPSQSLSLTCTVTGFSITSDYAWNWIRQFPGNQLEWMGYRSYRGSTSYNPSLKSRISITRDTSKNQFFLQLNSVTTEDTATYYCARRGYYGSSSHWYFDVWGAGTTVTVSS
VL: DIQMTQSPASLSASVGETVTITCRASENIYSYLAWYQQKQGKSPQLLVYNAKTLAEGVPSRFSGSGSGTQFSLKINSLQPEDFGSYYCQHHYGTPLTFGSGTKLELKR
As to B1, the binding entry is “binds”.
